Measured values published in publication PMC7145699, “Structural insights into target DNA recognition by R2R3-MYB transcription factors”.
Positions count from the first letter of the chain named. Weaker means in comparison with the reference protein, sequence or condition of that experiment. Tags and fusion partners may be left off the protein sequences shown. For some of these results: For at least one entry, the source does not settle the construct or the ends of the probe.

Assays:
[1] = target: T1, WER 12-130 (WER-R2R3) (Arabidopsis) (UniProt Q9SEI0); assay: EMSA; details: 5 mM H2O2; EMSA: 150 mM NaCl, 20 mM Tris-HCl pH 8.0, on ice 1 h, 0.1 uM DNA, 6% native PAGE 0.5x TBE; recombinant protein; residues 12-130; protein details: 6xHis-SUMO removed by Ulp1
T1 sequence (looked up): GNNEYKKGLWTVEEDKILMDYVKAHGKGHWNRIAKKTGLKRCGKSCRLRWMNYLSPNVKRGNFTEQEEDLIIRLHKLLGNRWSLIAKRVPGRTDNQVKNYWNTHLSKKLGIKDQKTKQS

WER K109A (Arabidopsis) = target: T2, WER K109A (Arabidopsis) (UniProt Q9SEI0); assay: ITC; details: ITC: 150 mM NaCl, 20 mM HEPES pH 7.5, 25 C, 400 uM protein into 20 uM DNA; recombinant protein; residues 12-130; protein details: 6xHis-SUMO removed by Ulp1
T2 sequence (looked up): T1 sequence (looked up) with K98A

WER N110A (Arabidopsis) = target: T3, WER N110A (Arabidopsis) (UniProt Q9SEI0); assay: ITC; details: ITC: 150 mM NaCl, 20 mM HEPES pH 7.5, 25 C, 400 uM protein into 20 uM DNA; recombinant protein; residues 12-130; protein details: 6xHis-SUMO removed by Ulp1
T3 sequence (looked up): T1 sequence (looked up) with N99A

WER N106A (Arabidopsis) = target: T4, WER N106A (Arabidopsis) (UniProt Q9SEI0); assay: ITC; details: ITC: 150 mM NaCl, 20 mM HEPES pH 7.5, 25 C, 400 uM protein into 20 uM DNA; recombinant protein; residues 12-130; protein details: 6xHis-SUMO removed by Ulp1
T4 sequence (looked up): T1 sequence (looked up) with N95A

Measured: binding result

AAATTCTCCAACCGCATTTTC (double strand) [GL2 promoter WER target DNA]
binds more weakly: all assays above
